Assay results as given in PMC5288152.
Results are given in words; binding and its absence hold for the method and conditions named. Binding seen in cells or lysates may run through a third protein. Some binding calls cover weakened binding; strength is not graded here.

Protein sequences, listed by entry. Tags and fused reporters are not part of them. Residues count along the entry.
UniProt P00441: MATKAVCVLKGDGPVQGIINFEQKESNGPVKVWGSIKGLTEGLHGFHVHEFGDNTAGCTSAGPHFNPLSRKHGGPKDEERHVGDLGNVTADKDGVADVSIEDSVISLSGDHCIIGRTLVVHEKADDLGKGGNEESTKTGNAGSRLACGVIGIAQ
UniProt P06396, residues 28-782: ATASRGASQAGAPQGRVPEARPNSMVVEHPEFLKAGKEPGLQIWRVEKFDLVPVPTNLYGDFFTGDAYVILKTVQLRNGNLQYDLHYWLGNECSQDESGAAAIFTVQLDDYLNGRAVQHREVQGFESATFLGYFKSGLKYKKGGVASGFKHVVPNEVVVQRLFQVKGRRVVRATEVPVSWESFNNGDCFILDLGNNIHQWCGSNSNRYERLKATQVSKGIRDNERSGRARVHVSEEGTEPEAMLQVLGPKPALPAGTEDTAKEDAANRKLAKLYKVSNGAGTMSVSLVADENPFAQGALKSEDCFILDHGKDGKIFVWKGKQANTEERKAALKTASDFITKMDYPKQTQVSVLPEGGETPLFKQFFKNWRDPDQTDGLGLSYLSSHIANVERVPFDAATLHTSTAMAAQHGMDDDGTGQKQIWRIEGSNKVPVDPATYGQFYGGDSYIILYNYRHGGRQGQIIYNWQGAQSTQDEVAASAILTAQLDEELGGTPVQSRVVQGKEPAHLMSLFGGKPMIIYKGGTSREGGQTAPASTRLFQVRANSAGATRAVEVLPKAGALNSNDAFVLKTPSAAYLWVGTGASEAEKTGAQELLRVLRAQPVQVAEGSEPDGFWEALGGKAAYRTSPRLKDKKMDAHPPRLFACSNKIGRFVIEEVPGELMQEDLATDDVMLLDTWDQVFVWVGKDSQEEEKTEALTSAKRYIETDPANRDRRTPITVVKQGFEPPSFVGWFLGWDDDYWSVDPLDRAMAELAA

Columns and labels:
[1] = target: Cu/ZnSOD (human (endogenous in HCT116)) (UniProt P00441); assay: co-IP; endogenous Cu/ZnSOD immunoprecipitated from 500 ug of C1 cell lysate (modified RIPA buffer) with anti-Cu/ZnSOD antibody on protein A/G agarose beads, overnight at 4 C; gelsolin detected by western blot; mouse IgG as negative control
[2] = target: Cu/ZnSOD (human (endogenous in HCT116)) (UniProt P00441); assay: proximity ligation; in situ PLA (Duolink 563 kit) on fixed cells with primary antibodies against gelsolin and Cu/ZnSOD; gelsolin-overexpressing C1 cells, vector control cells, and C1 cells with gelsolin siRNA or control siRNA

With gelsolin (from UniProt P06396 28-782) the binding [1] was “binds” and the binding [2] was “binds”.
